According to patent US20070208011A1, “Supersaturated Benzodiazepine Solutions and Their Delivery” (priority 2005, published 2007):

What was measured:
[1] = Nasal administration of diazepam and midazolam preparations in two healthy volunteers; conditions: human, blood, other: intranasal, 5 mg
Description: Approximately 0.5 ml (2.5 mg) was dripped into each nostril over a period of 30 seconds.

[2] = 40 mg/ml solutions, GF cosolvent composition at 50 vol % or above
[3] = clinical; conditions: human, plasma, inhaled or intranasal, 5 mg
[4] = Comparison of intranasal with published rectal diazepam concentration-time course; conditions: intranasally, 5 mg

CN1C(=O)CN=C(c2ccccc2)c2cc(Cl)ccc21 [DZP, diazepam]
Tmax [1]: 22.5 min | temporal stability (time solution remains stable) [2]: at least 40 min | Cmax [3]: 162 ng/mL | peak concentration [4]: 162 ng/mL
